Test results as given in patent publication US20130302399A1.
Results are given in words; binding and its absence hold for the method and conditions named. Some entries that bind do so weakly or less than the wild type.

Protein sequences, listed by entry. Tags and fused reporters are not part of them. Lines headed by an entry give the natural chain unless they say otherwise; changes in a name come on top.
UniProt Q8NBP7: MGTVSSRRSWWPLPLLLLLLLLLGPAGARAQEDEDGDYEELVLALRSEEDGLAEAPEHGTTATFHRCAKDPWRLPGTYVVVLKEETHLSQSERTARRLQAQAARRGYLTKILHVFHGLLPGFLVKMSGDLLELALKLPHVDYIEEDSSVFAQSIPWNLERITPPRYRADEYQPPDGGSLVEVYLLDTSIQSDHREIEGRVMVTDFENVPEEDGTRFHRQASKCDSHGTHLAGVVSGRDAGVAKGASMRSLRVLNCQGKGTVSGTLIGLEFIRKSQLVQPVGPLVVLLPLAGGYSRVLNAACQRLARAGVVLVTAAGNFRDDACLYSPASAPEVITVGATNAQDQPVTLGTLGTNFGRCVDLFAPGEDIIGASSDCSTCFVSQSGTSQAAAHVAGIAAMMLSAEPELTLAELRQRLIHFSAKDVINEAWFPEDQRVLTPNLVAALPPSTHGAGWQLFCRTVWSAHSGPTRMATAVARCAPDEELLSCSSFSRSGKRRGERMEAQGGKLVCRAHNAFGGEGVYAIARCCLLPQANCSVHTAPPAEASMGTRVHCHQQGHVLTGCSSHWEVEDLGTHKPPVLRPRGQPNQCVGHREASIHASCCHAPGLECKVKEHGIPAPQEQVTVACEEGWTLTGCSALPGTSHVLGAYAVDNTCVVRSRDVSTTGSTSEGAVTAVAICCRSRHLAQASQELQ

B1: Ab1 (antibody, human IgG1, kappa, N297A, V domains shown)
VH: QSVEESGGRLVTPGTPLTLTCTVSGFSLSSYWMTWVRQAPGKGLEYIGIISSSGSTYYATWAKGRFTISKTSSTTVDLEITSPTTEDTATYFCARDSAFSSGLEFNIWGPGTLVTVSS
VL: AYDLTQTPASVEVAVGGTVTIKCQASQSVYSNWLSWYQQKPGQPPKLLIYDASDLASGVPSRFKGSGSGTQFTLTISGVQCDDAATYYCQQGQSSSDIDNTFGGGTEVVVKR
B2: Ab2 (antibody, human IgG1, kappa, N297A, V domains shown)
VH: QSVEESGGRLVTPGTPLTLTCTVSGFSLSSYAMSWVRQAPGKGLEWIGIIDAIDNTYYASWAKGRFTISKTSTTVDLKMTSLTTGDTATYFCARASILGYSIATGFNIWGPGTLVTVSS
VL: AYDMTQTPASVEVAVGGTVTIKCQASQSISSHLAWYQQKSGQPPKLLIYRASTLESGVSSRFKGSGSGTEFTLTISDLECADAATYYCQQGYGVSDVDNGFGGGTEVVVKR
B3: Ab3 (antibody, human IgG1, kappa, N297A, V domains shown)
VH: QSVEESGGRLVTPGGSLTLTCTASGFSLSSYYMSWVRQAPGKGLEWIGIIYPSGSTYYASWAKGRFTISKTSTTVDLKITSPTVEDTATYFCARGGAYATLNLWGPGTLVTVSS
VL: AVLTQTPSPVSAAVGGTVTISCQSSQSVYHNNLLSWYQQKPGQPPKLLIYDASKLTSGVSSRFSGSGSGTQFTLTISGVQCDDAATYYCLGGYDDDADNGFGGGTEVVVKR
B4: Ab4 (antibody, human IgG1, kappa, N297A, V domains shown)
VH: QSVEESGGRLVTPGTPLTLTCTVSGIDLSSYAMIWVRQAPEKGLEYIGYIGGIDSTYYASWAKGRFTISKTSTTVDLKMTSPTTEDTATYFCGRWSGTSGYNTIWGPGTLVTVSS
VL: DVVMTQTPASVEAAVGGTVTIKCQASQSIYSNLAWYQQKPGQPPKLLIYGASNLASGVSSRFKGSRSGTEYTLTISDLECADAATYYCQCTGGGDSGNTFGGGTEVVVKR
B5: Ab5 (antibody, human IgG1, kappa, N297A, V domains shown)
VH: QSVEESGGRLVTPGTPLTLTCTVSGFSLSSYAMSWVRQAPGKGLEWIGIISNSGTTYYASWAKGRFTISKTSTTVDLKITSPTTEDTATYFCARGIYWYWRVFNLWGPGTLVTVSS
VL: AVLTQTPSPVSAAVGGTVTINCQASQSVYNNLLSWYQQKPGQPPKLLIYDASNLASGVPDRFSGSGSGTQFTLTISGVQCDDAATYYCLGGYDDDADNAFGGGTEVVVKR
B6: Ab6 (antibody, human IgG1, kappa, N297A, V domains shown)
VH: QEQLEESGGDLVKPEGSLTLTCTASGFSFSSNYWICWVRQAPGKGLEWIGCIRDGGGTYYASWAKGRLTISMTSSTTVTLQLNSLTAADTATYFCASDINDGWLGQFNLWGPGTLVTVSS
VL: DIVMTQTPASVEVAVGGTVTIKCQASQSISAYLAWYQQKPGQPPKLLIYRAYTLASGVPSRFKGSGSGTQFTLTISDLECADAATYYCQSYYSVTTNTYGNTFGGGTEVVVKR
B7: Ab8 (antibody, human IgG1, kappa, N297A, V domains shown)
VH: QEQLVESGGGLVQPEGSLTLTCTASGFSFTSDYYMCWVRQAPGKGLEWIGCISTGDGSTYYASWAKGRFTISKPSSTTVTLQMTRLTAADTATYFCARDRYYSYAYGAYVYASDLWGPGTLVTVSS
VL: DIVMTQTPASVSEPVGGTVTINCQASESIRNYLSWYQQKPGQRPKLLIYGASTLASGVPSRFKGSGSGTDFTLTISDLECADAATYYCQSNYGISSRSYVNGFGGGTEVVVKR
B8: Ab9 (antibody, human IgG1, kappa, N297A, V domains shown)
VH: QSVEESGGRLVTPGTPLTLTCTVSGIDLSSYAMGWVRQAPGKGLEYIGIIVSYGPTYYASWAKGRFTISKTSTTVDLKITSPTAEDTATYFCARDLDANSSGYYGCFNIWGQGTLVTVSS
VL: AVVLTQTPASVSAAVGGTVTIKCQASQSISTALAWYQQKPGQPPKLLIYAASPLASGVSSRFKSSGSGTEFTLTISDLECADAATYYCQSYYGSSNIAFGGGTELEILR
B9: Ab10 (antibody, human IgG1, kappa, N297A, V domains shown)
VH: QEQLEESGGDLVKPEGSLTLTCTASGFSFSSSYWICWVRQAPGKGLEWIACIRAGGGNYYANWAKGRFTISRTSSTTVTLQMTSLTAADTATYFCASDINDGWLGQFNLWGPGTLVTVSS
VL: NIVMTQTPASVEAAVGGTVTIKCQASQSISNYLAWYQQKPGQPPKLLIYRTSTLASGVPSRFKGSGSGTQFTLTISDLECADAATYYCQSYYSVTTVAYGNTFGGGTEVVVKR
B10: Ab13 (antibody, human IgG1, kappa, N297A, V domains shown)
VH: QSVEESGGRLVTPGTPLTLTCTVSGIDLSTYGVGWVRQAPGKGLEYIGIISSSGSTYYASWAKGRFTISKTSSTTVDLKMTSLTTEDTATYFCARDWSSTTGYYGYFNMWGPGTLVTVSS
VL: AFELTQTPSPVSAAVGGTVTIKCQASQSISTALAWYQQKPGQPPKLLIYGASNLESGVPSRFSGSGSGTQFTLTISDLECADAAIYYCQSSYGSSTLAFGGGTEVVVKR
B11: Ab14 (antibody, human IgG1, kappa, N297A, V domains shown)
VH: QEQLEESGGDLVKPEGSLTLTCTGSGFSFSSIAYMCWIRQAPGKGLEWIGCIGSGSGNTYYANWAKGRFTISKSSSTTVTLQMTSLTAADTATYFCASDTNNGWLGQFNLWGQGTLVTVSS
VL: DIVMTQTPASVSAAVGGTVTINCQASQSISSYLAWYQQKPGQPPKLLIYRASTLASGVPSRFKGSGSGTQFTLTISDLECADAATYYCQGYYSVTTNTYGNTFGGGTEVVVKR
B12: Ab15 (antibody, human IgG1, kappa, N297A, V domains shown)
VH: QEQLEESGGDLVKPEGSLTLTCTASGFSFSSSYWICWVRQAPGKGLEWIACIDAGNSGSTYYASWAKGRFTISKASSTTVTLQMTSLTAADTATYFCASDLNDGWLGQFNLWGPGTLVTVSS
VL: NIVMTQTPSPVSGAVGGTVTIKCQASQSISDYLAWYQQKPGQPPKLLIYRASTLASGVPSRFRGSGSGTEYTLTITDLECADAATYYCQSYYSVTTNTYGNTFGGGTEVVVKR
B13: Ab16 (antibody, human IgG1, kappa, N297A, V domains shown)
VH: QEQLVESGGGLVQPEGSLTLTCTASGFSFSSDYWICWVRQAPGKGLEWIGCIRDGGGSYYANWAKGRLTISMTSSTTVGLKMTSLTAADTATYFCASDINDGWLGQFNLWGPGTLVTVSS
VL: DIVMTQTPASVEAAVGGTVTIKCQASQSISSYLAWYQQKPGQPPKLLIYRASTLASGVPSRFSGSGSGTEFTLTISDLECADAATYYCQSYYSVTTVTYGNTFGGGTEVVVKR
B14: Ab17 (antibody, human IgG1, kappa, N297A, V domains shown)
VH: QEQLEESGGDLVKPEGSLTLTCTASGFSFSSSYWICWVRQAPGKGLEWIGCIRPGSADYYASWAKGRFTISRASSSTVTLQMTSLTAADTATYFCASDINDGWLGQFNLWGPGTLVTVSS
VL: DVVMTQTPASVEAAVGGTVTIKCQASLSIADYLAWYLQKPGQPPKLLIYRASTLASGVPSRFKGSGSGTEYTLTISDLECADAATYYCQSYYSVTTNTYGNTFGGGTEVVVKR
B15: Ab19 (antibody, human IgG1, kappa, N297A, V domains shown)
VH: EVQLVESGGGLVQPGGSLRLSCAASGIDLSSYAMGWVRQAPGKGLEYIGIIVSYGPTYYASWAKGRFTISRDNSKNTVYLQMNSLRAEDTATYFCARDLDAQSSGYYGAFNIWGQGTLVTVSS
VL: DIQMTQSPSTLSASVGDRVTITCQASQSISTALAWYQQKPGKAPKLLIYAASPLASGVPSRFSGSGSGTEFTLTISSLQPDDFATYYCQSYYGSSNIAFGGGTKVEIKR
B16: Ab20 (antibody, human IgG1, kappa, N297A, V domains shown)
VH: EVQLVESGGGLVQPGGSLRLSCAASGIDLSSYAMGWVRQAPGKGLEYIGIIVSYGPTYYASWAKGRFTISRDNSKSTVYLQMNSLRAEDTATYFCARDLDAQSSGYYGAFNIWGQGTLVTVSS
VL: DIQMTQSPSTLSASVGDRVTITCQASQSISTALAWYQQKPGKAPKLLIYAASPLASGVPSRFSGSGSGTEFTLTISSLQPDDFATYYCQSYYGSSNIAFGGGTKVEIKR
B17: Ab21 (antibody, human IgG1, kappa, N297A, V domains shown)
VH: QSVEESGGRLVTPGTPLTLTCTVSGFSLSSYAMNWVRQAPGKGLEWIGAIRSSGATFFASWVNGRFTISKTSTTVDLKITSPTPEDTATYFCARDTNDGWYINRLDLWGPGTLVTVSS
VL: AAVLTQTPSPVSAAVGGTVSISCQSSKSVYSNYLSWFQQKPGQPPKFLIYKASTLASGVPSRFKGSGSGTQFTLTISDVQCDDAATYYCAGGDTNISDNAFGGGTEVVVKR
B18: Ab22 (antibody, human IgG1, kappa, N297A, V domains shown)
VH: EVQLVESGGGLVQPGGSLRLSCAASGFSLSSYAMNWVRQAPGKGLEWIGAIRSSGATFFASSVNGRFTISRDNSKNTVYLQMNSLRAEDTAVYYCARDTNDGWYINRLDLWGQGTLVTVSS
VL: AVLTQSPSTLSASVGDRVTITCQSSKSVYSNYLSWFQQKPGKAPKFLIYKASTLASGVPSRFSGSGSGTEFTLTISSLQPDDFATYYCAGGDTNIADNAFGGGTKVEIKR
B19: Ab23 (antibody, human IgG1, kappa, N297A, V domains shown)
VH: QSLEESGGDLVKPGASLTLTCKASGFSFSSGYYMCWVRQAPGKGLEWIACIYAGSGGSTFFANWAKGRFTISKTSSTTVTLQMTSLTAADTATYFCARDGGYAGYGYAFFNLWGPGTLVTVSS
VL: DVVMTQTPASVSEPVGGTVTIKCQASERIYSGLAWYQQKPGQPPKLLIYGASTLASGVPSRFKGSGSGTDFTLTISDLECDDAAIYYCQCTYYGSSYPNVFGGGTEVVVKR
B20: Ab24 (antibody, human IgG1, kappa, N297A, V domains shown)
VH: QSLEESGGDLVKPGASLTLTCKASGFSFSSGYYMCWVRQAPGKGLEWIACIYAGSGGSTFFANWAKGRFTISKTSSTTVTLQMTSLTAADTATYFCARDGGYAGYGYAFFNLWGPGTLVTVSS
VL: DVVMTQTPASVSEPVGGTVTIKCQASERIYSGLAWYQQKPGQPPKLLIYGASTLASGVPSRFKGSGSGTDFTLTISDLECDDAAIYYCQATYYGSSYPNVFGGGTEVVVKR

target: human Proprotein Convertase Subtilisin-like/Kexin type 9 (human) (UniProt Q8NBP7); assay: ELISA, biotinylated human PCSK9 on neutravidin plates, antibody dilution series

binding, binds:
B1
B2
B3
B4
B5
B6
B7
B8
B9
B10
B11
B12
B13
B14
B15
B16
B17
B18
B19
B20
